# Measured values as given in article PMC12407772.
# Sequences of proteins named here, by UniProt entry; tags and fusion partners are left off.
# UniProt Q07820: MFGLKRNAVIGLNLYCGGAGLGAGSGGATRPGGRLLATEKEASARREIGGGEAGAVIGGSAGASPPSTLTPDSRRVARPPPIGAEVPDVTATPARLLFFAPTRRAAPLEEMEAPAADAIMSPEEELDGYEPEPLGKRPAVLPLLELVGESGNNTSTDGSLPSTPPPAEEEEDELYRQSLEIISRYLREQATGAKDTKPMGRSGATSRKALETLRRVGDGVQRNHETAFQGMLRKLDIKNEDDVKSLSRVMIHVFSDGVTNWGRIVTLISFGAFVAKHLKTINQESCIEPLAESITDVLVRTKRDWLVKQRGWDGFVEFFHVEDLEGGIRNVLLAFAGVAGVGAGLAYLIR
# Results are given in words; binding and its absence hold for the method and conditions named. In cells and extracts the contact can be indirect. Here binding means that the protein was enriched with, or labelled near, the bait; the list need not be complete. For some of these results: A no says only that the protein was not detected with the bait.
# B1: DNA fragmentation factor alpha (DFFA) (protein, UniProt O00273 1-331)
# chain: MEVTGDAGVPESGEIRTLKPCLLRRNYSREQHGVAASCLEDLRSKACDILAIDKSLTPVTLVLAEDGTIVDDDDYFLCLPSNTKFVALASNEKWAYNNSDGGTAWISQESFDVDETDSGAGLKWKNVARQLKEDLSSIILLSEEDLQMLVDAPCSDLAQELRQSCATVQRLQHTLQQVLDQREEVRQSKQLLQLYLQALEKEGSLLSKQEESKAAFGEEVDAVDTGISRETSSDVALASHILTALREKQAPELSLSSQDLELVTKEDPKALAVALNWDIKKTETVQEACERELALRLQQTQSLHSLRSISASKASPPGDLQNPKRARQDPT
# B2: deubiquitinating enzyme VCPIP1 (enzyme, UniProt Q96JH7 1-1222)
# chain: MSQPPPPPPPLPPPPPPPEAPQTPSSLASAAASGGLLKRRDRRILSGSCPDPKCQARLFFPASGSVSIECTECGQRHEQQQLLGVEEVTDPDVVLHNLLRNALLGVTGAPKKNTELVKVMGLSNYHCKLLSPILARYGMDKQTGRAKLLRDMNQGELFDCALLGDRAFLIEPEHVNTVGYGKDRSGSLLYLHDTLEDIKRANKSQECLIPVHVDGDGHCLVHAVSRALVGRELFWHALRENLKQHFQQHLARYQALFHDFIDAAEWEDIINECDPLFVPPEGVPLGLRNIHIFGLANVLHRPIILLDSLSGMRSSGDYSATFLPGLIPAEKCTGKDGHLNKPICIAWSSSGRNHYIPLVGIKGAALPKLPMNLLPKAWGVPQDLIKKYIKLEEDGGCVIGGDRSLQDKYLLRLVAAMEEVFMDKHGIHPSLVADVHQYFYRRTGVIGVQPEEVTAAAKKAVMDNRLHKCLLCGALSELHVPPEWLAPGGKLYNLAKSTHGQLRTDKNYSFPLNNLVCSYDSVKDVLVPDYGMSNLTACNWCHGTSVRKVRGDGSIVYLDGDRTNSRSTGGKCGCGFKHFWDGKEYDNLPEAFPITLEWGGRVVRETVYWFQYESDSSLNSNVYDVAMKLVTKHFPGEFGSEILVQKVVHTILHQTAKKNPDDYTPVNIDGAHAQRVGDVQGQESESQLPTKIILTGQKTKTLHKEELNMSKTERTIQQNITEQASVMQKRKTEKLKQEQKGQPRTVSPSTIRDGPSSAPATPTKAPYSPTTSKEKKIRITTNDGRQSMVTLKSSTTFFELQESIAREFNIPPYLQCIRYGFPPKELMPPQAGMEKEPVPLQHGDRITIEILKSKAEGGQSAAAHSAHTVKQEDIAVTGKLSSKELQEQAEKEMYSLCLLATLMGEDVWSYAKGLPHMFQQGGVFYSIMKKTMGMADGKHCTFPHLPGKTFVYNASEDRLELCVDAAGHFPIGPDVEDLVKEAVSQVRAEATTRSRESSPSHGLLKLGSGGVVKKKSEQLHNVTAFQGKGHSLGTASGNPHLDPRARETSVVRKHNTGTDFSNSSTKTEPSVFTASSSNSELIRIAPGVVTMRDGRQLDPDLVEAQRKKLQEMVSSIQASMDRHLRDQSTEQSPSDLPQRKTEVVSSSAKSGSLQTGLPESFPLTGGTENLNTETTDGCVADALGAAFATRSKAQRGNSVEELEEMDSQDAEMTNTTEPMDHS
# B3: translationally-controlled tumor protein TPT1 aka p23 (protein, UniProt P13693 1-172)
# chain: MIIYRDLISHDEMFSDIYKIREIADGLCLEVEGKMVSRTEGNIDDSLIGGNASAEGPEGEGTESTVITGVDIVMNHHLQETSFTKEAYKKYIKDYMKSIKGKLEEQRPERVKPFMTGAAEQIKHILANFKNYQFFIGENMNPDGMVALLDYREDGVTPYMIFFKDGLEMEKC
# B4: MCM5, P33992 1-734 (protein)
# chain: MSGFDDPGIFYSDSFGGDAQADEGQARKSQLQRRFKEFLRQYRVGTDRTGFTFKYRDELKRHYNLGEYWIEVEMEDLASFDEDLADYLYKQPAEHLQLLEEAAKEVADEVTRPRPSGEEVLQDIQVMLKSDASPSSIRSLKSDMMSHLVKIPGIIIAASAVRAKATRISIQCRSCRNTLTNIAMRPGLEGYALPRKCNTDQAGRPKCPLDPYFIMPDKCKCVDFQTLKLQELPDAVPHGEMPRHMQLYCDRYLCDKVVPGNRVTIMGIYSIKKFGLTTSRGRDRVGVGIRSSYIRVLGIQVDTDGSGRSFAGAVSPQEEEEFRRLAALPNVYEVISKSIAPSIFGGTDMKKAIACLLFGGSRKRLPDGLTRRGDINLLMLGDPGTAKSQLLKFVEKCSPIGVYTSGKGSSAAGLTASVMRDPSSRNFIMEGGAMVLADGGVVCIDEFDKMREDDRVAIHEAMEQQTISIAKAGITTTLNSRCSVLAAANSVFGRWDETKGEDNIDFMPTILSRFDMIFIVKDEHNEERDVMLAKHVITLHVSALTQTQAVEGEIDLAKLKKFIAYCRVKCGPRLSAEAAEKLKNRYIIMRSGARQHERDSDRRSSIPITVRQLEAIVRIAEALSKMKLQPFATEADVEEALRLFQVSTLDAALSGTLSGVEGFTSQEDQEMLSRIEKQLKRRFAIGSQVSEHSIIKDFTKQKYPEHAIHKVLQLMLRRGEIQHRMQRKVLYRLK
# Experiments:
# [1] = target: MCL1^TurboID (full-length MCL1 fused to two NLS and a C-terminal TurboID) (UniProt Q07820); experiment: proximity labelling; TurboID proximity biotinylation in live transfected HCT116 and HeLa cells: MCL1^TurboID (two NLS) compared with an identical GFP^TurboID construct; 67 uM biotin, 15-20 min, 37°C; RIPA lysis, streptavidin magnetic beads, on-bead trypsin digest, LC-MS/MS; SAINT, hits at SP > 0.8; technical triplicate
# [2] = target: MCL1^TurboID (full-length MCL1 fused to two NLS and a C-terminal TurboID), Q07820; experiment: as above; conditions: remark: other sources report otherwise
Binder,binding [1],binding [2]
B1,binds,–
B2,binds,–
B3,binds,–
B4,–,no binding
